Measured values: PMC7819943, “Rice protein-binding microarrays: a tool to detect cis-acting elements near promoter regions in rice”
This is one part of the list.

Sequences of proteins named here, by UniProt entry; tags and fusion partners are left off.
UniProt Q0JBA9, entry or part of it: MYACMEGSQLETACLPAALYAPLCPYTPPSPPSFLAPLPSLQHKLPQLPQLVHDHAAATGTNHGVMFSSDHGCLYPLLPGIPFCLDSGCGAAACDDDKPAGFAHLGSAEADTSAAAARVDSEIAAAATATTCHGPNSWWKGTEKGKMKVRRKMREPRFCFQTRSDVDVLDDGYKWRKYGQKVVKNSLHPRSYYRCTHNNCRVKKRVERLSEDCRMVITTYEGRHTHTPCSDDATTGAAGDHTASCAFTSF

These sequences were tested against OsWRKY34 (Oryza sativa, UniProt Q0JBA9 1-250) (assay: protein-binding microarray (RPBM); PBS, 2% BSA, 51.3 ng/ul salmon testes DNA, 50 uM zinc acetate, 200 nM TF, 25 C, 1 h; high values mean tight binding). Conditions: protein: recombinant; tags: N-terminal polyhistidine and DsRed monomer fusion (pET32a); label: CyDye5-dUTP incorporated in the synthesized complementary strand; 3' TTTTT single-stranded linker to array surface; dsDNA, one strand shown.
In short: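 Binding signal is reported as fluorescence intensity per feature (arbitrary units) from an Axon 4000B scanner. Incubation used 200 nM of each Ni–NTA-purified, N-terminally polyhistidine- and DsRed-fused transcription factor from E. coli BL21-CodonPlus on a double-stranded custom Agilent array for 1 h at 25 °C, with 50 µM zinc acetate in the buffer, followed by washing.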
In the case of “GCGTCCAATCCCCACCCTCCATTCGACCTCCTTCTTAACTCGGAGTCACCTAGTGCAG”, the binding signal is reported as 9970 fluorescence intensity (a.u.).
In the case of “GCGGCGGACTTCTCCCTCGGCGCCGCCATCTCTCGCCGCCCGGAGTCACCTAGTGCAG”, the binding signal is reported as 9190 fluorescence intensity (a.u.).
With “CTTCGCACGTTCGCCCGCTTAGAAAATCTCTTCGCTCGGACGGAGTCACCTAGTGCAG” the binding signal was 8530 fluorescence intensity (a.u.).
In the case of “GCTTACATTACTGTATATATCACCTTCTCCGCTCATTTCTCGGAGTCACCTAGTGCAG”, the binding signal is reported as 11100 fluorescence intensity (a.u.).
In the case of “TTTGTTAGGTTGTGTTCCTTAGCATGCACATATTCCCAAACGGAGTCACCTAGTGCAG”, the binding signal is reported as 9440 fluorescence intensity (a.u.).
For “GCATATCCTACGTTCTCTCCTGTATCCTCCCGTGCATCGGCGGAGTCACCTAGTGCAG”, the binding signal was 8880 fluorescence intensity (a.u.).
In the case of “GTCCCTACTGTTTACTACCACTCTTTCTGATCTATGTAGACGGAGTCACCTAGTGCAG”, the binding signal is reported as 9750 fluorescence intensity (a.u.).
For “ACATTAGATCTGTTCAGCGATTCGTGCTGTATTTTCTCACCGGAGTCACCTAGTGCAG”, the binding signal was 8900 fluorescence intensity (a.u.).
With “AGCTCTAGCTTTCTCTTCTTCCTAGCAAATTATAATTAACCGGAGTCACCTAGTGCAG” the binding signal was 8300 fluorescence intensity (a.u.).
With “AGAGGTGGAGGAGAGGAGGGGAGGGGAGGGGAGGTGAGGGCGGAGTCACCTAGTGCAG” the binding signal was 18700 fluorescence intensity (a.u.).
In the case of “CCCTATCCGCCCACACCGTCGCGCTCCAACTACCCACTACCGGAGTCACCTAGTGCAG”, the binding signal is reported as 9030 fluorescence intensity (a.u.).
With “TAGGGCATATTTGGGTTTGTCTTACATGATTATCAACTTACGGAGTCACCTAGTGCAG” the binding signal was 13400 fluorescence intensity (a.u.).
For “ATTGCTGTCGCCTTTCTTGATTTTTCTTTTTACTGATCTCCGGAGTCACCTAGTGCAG”, the binding signal was 9620 fluorescence intensity (a.u.).
With “CGCCTGCTGCTTCGACCGCCACTACCTCAACCTGCAATCCCGGAGTCACCTAGTGCAG” the binding signal was 8500 fluorescence intensity (a.u.).
“TTCTGGATCTTGACTCTTGACCAGTTCATCCACACGTGTGCGGAGTCACCTAGTGCAG” was tested, and the binding signal was 8540 fluorescence intensity (a.u.).
For “CACATCCACGTGTCCGCGTCGTTTGCCTCCTCGCCAATATCGGAGTCACCTAGTGCAG”, the binding signal was 12100 fluorescence intensity (a.u.).
“GTCTACTTGTTTGGTGTAATTTATTTTTTTTCTTTCGCTTCGGAGTCACCTAGTGCAG” was tested, and the binding signal was 9740 fluorescence intensity (a.u.).
In the case of “TGTTTTTCGTTCATTCATAGGATCAAGTGCTCCAATAATTCGGAGTCACCTAGTGCAG”, the binding signal is reported as 8430 fluorescence intensity (a.u.).
In the case of “AACTTTTCTATCACATCAAAACATTTCTACACACACAAACCGGAGTCACCTAGTGCAG”, the binding signal is reported as 9200 fluorescence intensity (a.u.).
In the case of “TTCTTGATCTTTCTGGTTTCTACTGGTTGATTGTACACTTCGGAGTCACCTAGTGCAG”, the binding signal is reported as 8500 fluorescence intensity (a.u.).
In the case of “GTTCCTCGTGTACGCTTTTCAAATTGCTAAACGTTTTTTCCGGAGTCACCTAGTGCAG”, the binding signal is reported as 9350 fluorescence intensity (a.u.).
“TATTATTTTACCTCAATAACTCTAGCTCCAGTCCCTTCTACGGAGTCACCTAGTGCAG” was tested, and the binding signal was 8180 fluorescence intensity (a.u.).
In the case of “ACTCTTTCATGCAATAAACATCTACAACGTAATATCTTCTCGGAGTCACCTAGTGCAG”, the binding signal is reported as 8130 fluorescence intensity (a.u.).
With “GACCGAACTACTAACCGAATTTCTCGATTTCGGTCTTTTCCGGAGTCACCTAGTGCAG” the binding signal was 8450 fluorescence intensity (a.u.).
With “TGGGGATGGCTGGTGAAGTGGCAGATTAGGGCTGAAAGCTCGGAGTCACCTAGTGCAG” the binding signal was 8650 fluorescence intensity (a.u.).
For “ACCTATTGGGGCCTTGTCCGCAAAAATCGATTATGTACTACGGAGTCACCTAGTGCAG”, the binding signal was 8630 fluorescence intensity (a.u.).
With “AGTTCTGAAGGCTCCTTGCTCTGCGTCTTGTACATACATACGGAGTCACCTAGTGCAG” the binding signal was 10900 fluorescence intensity (a.u.).
For “TCCCCATCGATCGACGTCCTCCGCCTGATGAGCACCCGCTCGGAGTCACCTAGTGCAG”, the binding signal was 10000 fluorescence intensity (a.u.).
For “CGTGACATGAGGGACCATATGGTGGGGTGGGCCCACGCGTCGGAGTCACCTAGTGCAG”, the binding signal was 8090 fluorescence intensity (a.u.).
For “TAGAGTTTGCAATTCTTGGGGTCTTATATTGCTTTTGGTTCGGAGTCACCTAGTGCAG”, the binding signal was 9820 fluorescence intensity (a.u.).
For “TCACCCCTCAGCTTTCACCCGCGCCGCCTTTTCCACCACCCGGAGTCACCTAGTGCAG”, the binding signal was 8420 fluorescence intensity (a.u.).
With “TTTGTTTTTTAATAGATGACGCTGTTGACTTTTTCTCACGCGGAGTCACCTAGTGCAG” the binding signal was 14200 fluorescence intensity (a.u.).
“TTTTTCTTTCTTCCCAGACTTTTTCTCCAAGTTCAACTCCCGGAGTCACCTAGTGCAG” was tested, and the binding signal was 8040 fluorescence intensity (a.u.).
With “GAGAGTCGGGGTGGGGCTGCAGTGCGCGACGATGTCCGAGCGGAGTCACCTAGTGCAG” the binding signal was 8860 fluorescence intensity (a.u.).
In the case of “CCCTCGCCGCCGCCGCCACCGCCGCCTATGCCGCCGCCGCCGGAGTCACCTAGTGCAG”, the binding signal is reported as 8130 fluorescence intensity (a.u.).
In the case of “TCTTCAACACCATTGGTCATAGTTGTCGTCGCTTCAACCGCGGAGTCACCTAGTGCAG”, the binding signal is reported as 8460 fluorescence intensity (a.u.).
“CACTTTGTTCTTTTATGATGTTTTATTTTGTTATTTTGGACGGAGTCACCTAGTGCAG” was tested, and the binding signal was 8210 fluorescence intensity (a.u.).
In the case of “CTTTGCAGCTCGCGACTTTGCAATTGCATGCCTTTACTTTCGGAGTCACCTAGTGCAG”, the binding signal is reported as 10200 fluorescence intensity (a.u.).
In the case of “CCCACTTCTCTCTCAATCTCTCTCTCTGCTAGGGTTTATCCGGAGTCACCTAGTGCAG”, the binding signal is reported as 9900 fluorescence intensity (a.u.).
“CCCCGTCCACAGCCACGCCGCCGAGCCATGCTGTGCATCTCGGAGTCACCTAGTGCAG” was tested, and the binding signal was 8080 fluorescence intensity (a.u.).
In the case of “TGGTTAGGCCAGTAATCAGTACTCCGTTATATCATCGACCCGGAGTCACCTAGTGCAG”, the binding signal is reported as 9300 fluorescence intensity (a.u.).
In the case of “TCTCCTCCTACGTTCTACTGGACTTGTGCTGCGAGGGGAGCGGAGTCACCTAGTGCAG”, the binding signal is reported as 9790 fluorescence intensity (a.u.).
